PubChem BioAssay AID652243 | Drosophila RNAi Screening Center, 2013
Screen: 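Fly genes required for human androgen receptor driven transcription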 (primary screen). Cell system: Drosophila S2R+ cells. Reagent: long dsRNA against Drosophila genes. Time to read-out: 72 h (48 h, then 24 h hormone). Treatment: synthetic androgen R1881 at 10 nM for 24 h. Measurement: 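Per-well raw luminescence of the androgen-driven firefly reporter and of the Renilla control, two replicates each, without normalisation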. Direction: firefly reporter light: higher = more light from androgen-responsive reporter; Renilla control light: higher = more constitutive control signal (cell number, transfection). Call rule: 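Hit when the log firefly-to-Renilla ratio dropped or increased by a fixed fold versus the mean of GFP or LacZ controls across duplicate plates; lowering cut given as 1.5 and as 3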. Calls: active = hit: reporter lowered or raised; inactive = no hit.
The deposit covers about 24,000 reagents; shown is a random part of those with a known target gene and a result. Over the whole deposit, 246 (1%) are marked active. 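Plates not normalised; calls are printed but the firefly/Renilla ratio behind them is not deposited; fold cut for lowering reported inconsistently.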 Raw values vary from plate to plate and are shown uncorrected. Unmarked entries are inactive. No sequences are given here. Not given: the amount of reagent.

For Pdi [DRSC11250], the values are firefly reporter light, replicate 1 = 2.37e5; firefly reporter light, replicate 2 = 2.76e5; Renilla control light, replicate 1 = 2.13e6; Renilla control light, replicate 2 = 2.20e6.
For Pdi [DRSC26376], the entry reads firefly reporter light, replicate 1 = 5.18e5; firefly reporter light, replicate 2 = 5.62e5; Renilla control light, replicate 1 = 8.07e5; Renilla control light, replicate 2 = 6.97e5.
For CG5611 [DRSC15843], the entry reads firefly reporter light, replicate 1 = 1.93e5; firefly reporter light, replicate 2 = 1.94e5; Renilla control light, replicate 1 = 1.99e6; Renilla control light, replicate 2 = 3.15e6.
Silencing of CG11384 [DRSC18628] resulted in: firefly reporter light, replicate 1 = 1.75e5; firefly reporter light, replicate 2 = 1.46e5; Renilla control light, replicate 1 = 2.91e6; Renilla control light, replicate 2 = 2.23e6.
For CG11658 [DRSC09852], the values are firefly reporter light, replicate 1 = 1.70e5; firefly reporter light, replicate 2 = 85126; Renilla control light, replicate 1 = 2.63e6; Renilla control light, replicate 2 = 1.63e6.
Against CG14969 [DRSC08428], the entry reads firefly reporter light, replicate 1 = 9.27e5; firefly reporter light, replicate 2 = 1.06e6; Renilla control light, replicate 1 = 2.23e6; Renilla control light, replicate 2 = 2.15e6.

Copied from above for reference:
Pdi [DRSC11250] → firefly reporter light, replicate 1: 2.37e5; firefly reporter light, replicate 2: 2.76e5; Renilla control light, replicate 1: 2.13e6; Renilla control light, replicate 2: 2.20e6
Pdi [DRSC26376] → firefly reporter light, replicate 1: 5.18e5; firefly reporter light, replicate 2: 5.62e5; Renilla control light, replicate 1: 8.07e5; Renilla control light, replicate 2: 6.97e5

More entries:
With knock-down of CAH14 [DRSC04234] the results were firefly reporter light, replicate 1 = 3.49e5; firefly reporter light, replicate 2 = 4.59e5; Renilla control light, replicate 1 = 3.10e6; Renilla control light, replicate 2 = 3.41e6.
With knock-down of CAH14 [DRSC22160], the screen gave firefly reporter light, replicate 1 = 1.05e6; firefly reporter light, replicate 2 = 8.77e5; Renilla control light, replicate 1 = 2.58e6; Renilla control light, replicate 2 = 1.45e6.
Knock-down of CG17486 [DRSC07752] resulted in: firefly reporter light, replicate 1 = 7.41e5; firefly reporter light, replicate 2 = 7.69e5; Renilla control light, replicate 1 = 1.14e6; Renilla control light, replicate 2 = 1.04e6.
CG9855 [DRSC12344] gave firefly reporter light, replicate 1 = 4.00e5 (active); firefly reporter light, replicate 2 = 5.05e5; Renilla control light, replicate 1 = 1.65e6; Renilla control light, replicate 2 = 2.23e6.
After knock-down of CG9855 [DRSC25547] the results were firefly reporter light, replicate 1 = 1.47e6; firefly reporter light, replicate 2 = 1.54e6; Renilla control light, replicate 1 = 1.10e6; Renilla control light, replicate 2 = 8.81e5.
For CG9855 [DRSC39062], the entry reads firefly reporter light, replicate 1 = 9.19e5; firefly reporter light, replicate 2 = 7.22e5; Renilla control light, replicate 1 = 1.98e6; Renilla control light, replicate 2 = 1.27e6.
